Consider one compound from paper PMC7395821 (Antiviral Research, 2020).

One series is described as follows: Cytotoxicity assay. Particulars: human, Huh7 cells. It is filed as cell-based.
A further series relates to WT-JEV. Description: Antiviral assay of WT-JEV in Huh7 cells, viral titer by plaque assay.

In general, CC50 refers to the concentration at which the toxic effect on the cells reaches its halfway point. Read a high CC50 as better tolerance by the cells. The term EC50 denotes the concentration that produces a half-maximal response.

Each structure is given as a SMILES string. Bounds are passed on as bounds.

For the compound `CCCCCCCCCCCCCCCC[n+]1ccccc1` [cetylpyridinium chlorid, cetylpyridinium chloride], the CC50 at 48 h in the series “Cytotoxicity assay” turned out to be 7.2 µM. The “SI (selective index, ratio of CC50 to EC50)” value with WT-JEV (Huh7 cells, CC50/EC50) is given as over 10. The EC50 in the series with WT-JEV (Japanese encephalitis virus, Huh-7, read-out: EC50 (50% reduction of viral titer)) stood at 0.455 µM.
